Paper PMC7332298
These are yes or no findings as the source states them, for the method shown. Binding seen in cells or lysates may run through a third protein. Sequences can lack the tags named with a protein.

Target: 3xFLAG::SFA-1 (C. elegans)
Assay: co-IP; Flag immunoprecipitation (FLAG M2 antibody, Dynabeads Protein G) from lysates of worms expressing HA::RNP-6, FLAG-SFA-1 or both; 0.5% NP40, 150 mM NaCl, 50 mM Tris pH 7.4; immunoblot

B1: HA::RNP-6 (protein, UniProt Q9N3S4 1-749)
chain: MEENSADIENRPVAAFRPAVSVPMPVLPQDGEVFVGPGGKKDAQKIGLGLSKLSSKRKDDIQMAKKYAMDISIKQILLRQQKQQQENQQRQQMYSQALSIMSRIYVGSISFEIREDMLRRAFDPFGPIKSINMSWDPATGHHKTFAFVEYEVPEAALLAQESMNGQMLGGRNLKVNSMMFQEMRLPQNMPQAQPIIDMVQKDAKKYFRVYVSSVHPDLSETDLKSVFEAFGEIVKCQLARAPTGRGHRGFGYLEFNNLTSQSEAIAGMNMFDLGGQYLRVGKCVTPPDALTYLQPASVSAIPASVSVACAAITAKVMAAEAAAGSSPKTPSESGGSRAASPAPRAQSPATPSSSLPTDIENKAVISSPKKEPEEIEVPPLPPSAPDVVKDEPMEIEEEEEYTIPEEKPKPVAIVPPPGLAIPSLVAPPGLIAPTEIGIVVPNPSFLAQQQQKIEEKIEEEEEARTERVKLSTSQRKKMKREKLNQMTFEEKMAQVLGQQKAVQNQRMADPVTFGALDDTVAWKDPSNEDQTSEDGKMLAIMGPGRGGDNVASMALALMDGGSSLMLANNAKAKEAAAALALEPKKKKKVKEGKKIQPKLNTAQALAAAAKAGEMSDALKNEVMNSEDASLASQEGLEIRGNDARHLLMTKLMRTNRSNVIVLRNMVTPQDIDEFLEGEIREECGKYGNVIDVVIANFASSGLVKIFVKYSDSMQVDRAKAALDGRFFGGNTVKAEAYDQILFDHADYTG
Question: For B1, which binding is on record?
Answer: no binding
